Results are given in words; binding and its absence hold for the method and conditions named. For some assays here: In cells and extracts the contact can be indirect. Some entries that bind do so weakly or less than the wild type. Where a sequence is shown, tags or fusion partners need not be part of it.

Chains of the proteins cited; added tags and fusions are not shown.
UniProt Q9QUR7: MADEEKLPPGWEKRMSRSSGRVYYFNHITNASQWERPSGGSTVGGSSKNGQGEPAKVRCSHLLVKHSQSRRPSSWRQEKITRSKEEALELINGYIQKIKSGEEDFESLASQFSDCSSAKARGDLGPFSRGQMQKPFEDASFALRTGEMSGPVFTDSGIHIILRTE

One experiment concerns the target T1, Flag-tagged Gbp2 (UniProt Q9Z0E6).
T1 sequence: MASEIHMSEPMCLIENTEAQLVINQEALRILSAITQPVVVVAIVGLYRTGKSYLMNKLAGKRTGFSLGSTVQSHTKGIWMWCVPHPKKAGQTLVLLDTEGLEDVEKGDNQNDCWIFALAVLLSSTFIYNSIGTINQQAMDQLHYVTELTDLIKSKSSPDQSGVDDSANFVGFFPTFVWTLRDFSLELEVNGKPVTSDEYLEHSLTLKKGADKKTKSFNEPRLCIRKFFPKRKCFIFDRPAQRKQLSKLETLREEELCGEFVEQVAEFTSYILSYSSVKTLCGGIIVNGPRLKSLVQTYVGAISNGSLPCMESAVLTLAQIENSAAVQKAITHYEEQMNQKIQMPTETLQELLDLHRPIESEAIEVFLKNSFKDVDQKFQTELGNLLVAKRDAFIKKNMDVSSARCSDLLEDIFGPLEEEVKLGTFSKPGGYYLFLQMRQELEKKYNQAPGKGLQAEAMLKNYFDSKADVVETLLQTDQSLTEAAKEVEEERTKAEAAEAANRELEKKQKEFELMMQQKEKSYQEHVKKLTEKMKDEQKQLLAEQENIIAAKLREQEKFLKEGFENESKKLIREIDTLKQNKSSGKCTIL
In words: co-IP; lysate of RAW264.7 macrophages transfected with Flag-Gbp2, in IP lysis buffer; incubated overnight at 4 °C with anti-Flag magnetic beads; washed five times with 1% TBST; western blot. Background: Immunoblotting shows a protein as a band on a membrane.

In the next experiment the target is T2, GST-Gbp2 (UniProt Q9Z0E6).
T2 sequence: T1 sequence
Kind of experiment: pull-down; printed as 'in vitro binding assay' with recombinant GST-Gbp2 and His-Pin1 purified from bacteria; which protein was held is not told; both purified.

Consider Pin1 (from UniProt Q9QUR7 1-165), for which, in the experiment with Flag-tagged Gbp2, the binding entry is reported as “binds”.
Take His-Pin1 (from UniProt Q9QUR7 1-165): in the experiment with GST-Gbp2, the binding result is listed as “binds”.

The record behind these values is PMC12005807.
